The supplement of paper PMC11006884
This is a selection; strong and weak results do not stand in their true shares. The data scatter; read single values as rough.

Sequences of proteins named here, by UniProt entry; tags and fusion partners are left off. A change or cut given only in a name is not applied to a line headed by its entry.
UniProt P50579: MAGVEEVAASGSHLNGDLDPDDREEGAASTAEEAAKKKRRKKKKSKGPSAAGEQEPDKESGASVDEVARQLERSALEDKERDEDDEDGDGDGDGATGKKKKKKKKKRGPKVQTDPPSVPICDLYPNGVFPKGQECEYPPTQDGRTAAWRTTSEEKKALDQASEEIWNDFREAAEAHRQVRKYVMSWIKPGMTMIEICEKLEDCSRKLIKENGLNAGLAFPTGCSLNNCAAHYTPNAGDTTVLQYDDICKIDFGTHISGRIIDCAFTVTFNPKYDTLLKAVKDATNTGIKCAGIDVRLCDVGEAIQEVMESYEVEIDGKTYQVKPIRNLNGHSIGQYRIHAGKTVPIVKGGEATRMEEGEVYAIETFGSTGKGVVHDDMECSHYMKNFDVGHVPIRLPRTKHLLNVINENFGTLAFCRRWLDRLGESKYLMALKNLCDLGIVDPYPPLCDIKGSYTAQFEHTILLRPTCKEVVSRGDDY
UniProt P49821, whole entry, looked up: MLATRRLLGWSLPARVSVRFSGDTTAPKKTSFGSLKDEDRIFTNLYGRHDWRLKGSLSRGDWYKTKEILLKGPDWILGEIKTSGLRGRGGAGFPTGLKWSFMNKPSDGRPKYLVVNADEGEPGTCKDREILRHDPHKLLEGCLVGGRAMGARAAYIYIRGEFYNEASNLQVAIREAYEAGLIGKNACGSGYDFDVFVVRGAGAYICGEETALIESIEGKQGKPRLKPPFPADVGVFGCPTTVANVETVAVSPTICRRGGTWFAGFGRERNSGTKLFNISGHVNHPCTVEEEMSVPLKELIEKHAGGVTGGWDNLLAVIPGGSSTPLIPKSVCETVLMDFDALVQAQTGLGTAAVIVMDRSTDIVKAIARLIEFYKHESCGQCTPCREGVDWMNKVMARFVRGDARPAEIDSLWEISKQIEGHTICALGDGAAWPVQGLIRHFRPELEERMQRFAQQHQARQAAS
UniProt P48643, whole entry, looked up: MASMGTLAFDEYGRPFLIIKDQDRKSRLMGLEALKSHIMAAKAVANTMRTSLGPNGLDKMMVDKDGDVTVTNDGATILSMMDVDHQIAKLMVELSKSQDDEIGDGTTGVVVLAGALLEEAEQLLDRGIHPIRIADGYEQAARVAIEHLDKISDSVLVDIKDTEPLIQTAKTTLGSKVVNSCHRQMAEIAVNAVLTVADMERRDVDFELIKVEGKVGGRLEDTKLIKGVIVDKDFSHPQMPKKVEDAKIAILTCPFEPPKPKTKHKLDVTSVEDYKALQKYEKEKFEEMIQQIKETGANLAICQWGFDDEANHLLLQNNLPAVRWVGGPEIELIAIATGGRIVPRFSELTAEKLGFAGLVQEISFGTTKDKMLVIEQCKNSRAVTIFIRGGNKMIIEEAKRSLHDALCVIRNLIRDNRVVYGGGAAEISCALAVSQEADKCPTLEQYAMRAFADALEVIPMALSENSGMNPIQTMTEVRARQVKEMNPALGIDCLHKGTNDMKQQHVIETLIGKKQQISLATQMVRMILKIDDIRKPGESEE
UniProt P46013: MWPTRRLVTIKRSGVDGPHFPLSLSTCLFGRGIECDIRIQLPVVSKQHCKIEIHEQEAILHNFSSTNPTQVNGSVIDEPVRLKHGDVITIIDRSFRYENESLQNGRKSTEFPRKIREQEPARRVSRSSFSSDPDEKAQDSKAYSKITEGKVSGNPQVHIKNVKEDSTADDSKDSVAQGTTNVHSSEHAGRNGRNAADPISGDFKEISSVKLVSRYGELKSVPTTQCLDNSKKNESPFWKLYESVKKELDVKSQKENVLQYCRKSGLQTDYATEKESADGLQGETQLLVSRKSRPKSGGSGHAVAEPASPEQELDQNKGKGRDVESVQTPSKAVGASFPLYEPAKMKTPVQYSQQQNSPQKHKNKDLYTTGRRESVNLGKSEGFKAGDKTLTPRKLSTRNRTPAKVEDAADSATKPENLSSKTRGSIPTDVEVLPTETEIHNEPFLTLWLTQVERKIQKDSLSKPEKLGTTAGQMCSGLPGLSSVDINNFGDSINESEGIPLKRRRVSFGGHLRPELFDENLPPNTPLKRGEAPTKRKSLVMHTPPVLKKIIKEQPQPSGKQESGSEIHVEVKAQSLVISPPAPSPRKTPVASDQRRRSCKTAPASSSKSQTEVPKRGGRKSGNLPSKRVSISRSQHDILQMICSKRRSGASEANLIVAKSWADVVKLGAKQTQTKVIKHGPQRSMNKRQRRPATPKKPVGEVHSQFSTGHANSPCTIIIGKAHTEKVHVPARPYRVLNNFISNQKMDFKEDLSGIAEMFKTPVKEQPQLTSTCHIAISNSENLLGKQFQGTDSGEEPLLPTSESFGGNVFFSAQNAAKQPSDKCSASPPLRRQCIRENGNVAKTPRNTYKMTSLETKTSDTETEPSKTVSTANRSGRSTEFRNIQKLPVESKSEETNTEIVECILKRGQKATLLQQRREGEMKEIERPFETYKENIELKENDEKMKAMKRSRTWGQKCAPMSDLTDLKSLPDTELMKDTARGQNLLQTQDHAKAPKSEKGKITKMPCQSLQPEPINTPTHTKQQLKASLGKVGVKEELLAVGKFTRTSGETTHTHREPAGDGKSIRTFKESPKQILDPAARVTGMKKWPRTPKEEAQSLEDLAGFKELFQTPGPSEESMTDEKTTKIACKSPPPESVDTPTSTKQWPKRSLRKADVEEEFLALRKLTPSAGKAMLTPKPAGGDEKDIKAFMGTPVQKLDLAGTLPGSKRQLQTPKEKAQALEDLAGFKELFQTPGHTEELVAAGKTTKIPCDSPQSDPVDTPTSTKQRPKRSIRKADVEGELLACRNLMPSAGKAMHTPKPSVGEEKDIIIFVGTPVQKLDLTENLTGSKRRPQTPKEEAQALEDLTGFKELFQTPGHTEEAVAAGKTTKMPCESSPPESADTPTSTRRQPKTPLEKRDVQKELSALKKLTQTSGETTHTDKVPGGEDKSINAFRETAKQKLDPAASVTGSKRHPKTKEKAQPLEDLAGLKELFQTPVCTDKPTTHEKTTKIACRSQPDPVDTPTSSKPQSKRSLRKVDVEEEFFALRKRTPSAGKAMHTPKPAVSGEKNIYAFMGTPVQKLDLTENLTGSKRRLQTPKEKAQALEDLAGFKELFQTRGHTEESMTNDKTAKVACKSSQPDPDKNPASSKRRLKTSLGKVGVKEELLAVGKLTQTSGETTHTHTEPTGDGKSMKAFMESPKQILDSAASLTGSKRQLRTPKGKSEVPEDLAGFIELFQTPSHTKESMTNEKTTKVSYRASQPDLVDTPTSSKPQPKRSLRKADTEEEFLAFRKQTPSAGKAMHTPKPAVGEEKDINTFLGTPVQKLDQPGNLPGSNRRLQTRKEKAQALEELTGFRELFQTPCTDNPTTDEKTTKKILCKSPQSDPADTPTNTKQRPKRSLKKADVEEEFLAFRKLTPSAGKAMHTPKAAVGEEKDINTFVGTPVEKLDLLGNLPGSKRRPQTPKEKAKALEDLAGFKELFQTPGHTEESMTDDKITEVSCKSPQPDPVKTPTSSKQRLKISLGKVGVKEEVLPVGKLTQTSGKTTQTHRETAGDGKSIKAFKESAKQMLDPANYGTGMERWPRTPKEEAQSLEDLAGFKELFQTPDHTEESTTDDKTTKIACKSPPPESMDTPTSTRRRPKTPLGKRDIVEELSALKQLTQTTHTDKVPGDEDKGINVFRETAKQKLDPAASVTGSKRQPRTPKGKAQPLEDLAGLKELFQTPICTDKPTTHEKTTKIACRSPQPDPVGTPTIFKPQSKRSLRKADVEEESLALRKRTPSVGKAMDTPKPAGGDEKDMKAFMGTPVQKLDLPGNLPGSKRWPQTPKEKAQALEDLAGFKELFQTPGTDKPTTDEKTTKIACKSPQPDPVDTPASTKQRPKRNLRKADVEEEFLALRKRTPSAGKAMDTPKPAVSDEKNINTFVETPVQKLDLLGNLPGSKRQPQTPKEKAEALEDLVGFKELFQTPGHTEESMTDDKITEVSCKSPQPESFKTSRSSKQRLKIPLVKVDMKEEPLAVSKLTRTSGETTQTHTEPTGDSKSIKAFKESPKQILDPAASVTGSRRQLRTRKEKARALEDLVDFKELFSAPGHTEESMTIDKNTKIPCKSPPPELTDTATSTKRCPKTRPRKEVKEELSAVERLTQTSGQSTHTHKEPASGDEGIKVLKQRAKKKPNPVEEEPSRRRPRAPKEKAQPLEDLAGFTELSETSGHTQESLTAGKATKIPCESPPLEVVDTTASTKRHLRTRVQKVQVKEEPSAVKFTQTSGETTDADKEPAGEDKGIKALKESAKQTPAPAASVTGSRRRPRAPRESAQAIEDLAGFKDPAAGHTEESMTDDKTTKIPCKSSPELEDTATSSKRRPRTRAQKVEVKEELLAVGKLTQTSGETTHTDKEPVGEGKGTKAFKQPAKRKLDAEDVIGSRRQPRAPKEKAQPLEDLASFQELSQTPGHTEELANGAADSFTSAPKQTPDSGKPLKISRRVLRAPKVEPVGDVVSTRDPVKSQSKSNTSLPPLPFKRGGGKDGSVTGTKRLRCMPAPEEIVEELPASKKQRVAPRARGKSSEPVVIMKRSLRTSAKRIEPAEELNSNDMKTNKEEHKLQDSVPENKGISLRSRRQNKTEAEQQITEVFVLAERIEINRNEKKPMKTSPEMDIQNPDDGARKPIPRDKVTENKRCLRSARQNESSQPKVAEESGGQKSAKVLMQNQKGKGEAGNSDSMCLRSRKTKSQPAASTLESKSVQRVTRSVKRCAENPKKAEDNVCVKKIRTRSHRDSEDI
UniProt P51116, whole entry, looked up: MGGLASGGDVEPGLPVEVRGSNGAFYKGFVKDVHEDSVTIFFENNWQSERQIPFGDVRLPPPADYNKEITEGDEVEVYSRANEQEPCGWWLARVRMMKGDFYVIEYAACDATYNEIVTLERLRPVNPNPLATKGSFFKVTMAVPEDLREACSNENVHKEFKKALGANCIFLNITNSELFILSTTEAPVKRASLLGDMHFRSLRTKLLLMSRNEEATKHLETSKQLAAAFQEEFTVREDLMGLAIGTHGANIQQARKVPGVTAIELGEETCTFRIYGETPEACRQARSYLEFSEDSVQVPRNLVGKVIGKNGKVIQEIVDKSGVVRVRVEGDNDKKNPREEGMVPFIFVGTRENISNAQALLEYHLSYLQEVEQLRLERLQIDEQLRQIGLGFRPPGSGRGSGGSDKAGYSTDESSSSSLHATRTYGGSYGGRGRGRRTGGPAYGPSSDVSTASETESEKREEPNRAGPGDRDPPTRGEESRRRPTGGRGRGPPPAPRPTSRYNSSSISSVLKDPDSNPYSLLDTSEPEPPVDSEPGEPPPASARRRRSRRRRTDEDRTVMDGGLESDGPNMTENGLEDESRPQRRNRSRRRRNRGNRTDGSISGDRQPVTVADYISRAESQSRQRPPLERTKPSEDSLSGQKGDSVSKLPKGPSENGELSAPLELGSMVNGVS
UniProt P45880: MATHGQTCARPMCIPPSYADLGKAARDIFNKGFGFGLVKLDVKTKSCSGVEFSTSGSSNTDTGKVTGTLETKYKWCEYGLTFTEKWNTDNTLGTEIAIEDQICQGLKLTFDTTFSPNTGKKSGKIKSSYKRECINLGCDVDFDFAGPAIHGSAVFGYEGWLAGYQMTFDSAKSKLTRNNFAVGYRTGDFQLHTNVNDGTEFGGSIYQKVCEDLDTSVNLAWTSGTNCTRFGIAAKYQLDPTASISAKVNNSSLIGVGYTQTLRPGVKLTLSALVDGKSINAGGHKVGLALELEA
UniProt P50479: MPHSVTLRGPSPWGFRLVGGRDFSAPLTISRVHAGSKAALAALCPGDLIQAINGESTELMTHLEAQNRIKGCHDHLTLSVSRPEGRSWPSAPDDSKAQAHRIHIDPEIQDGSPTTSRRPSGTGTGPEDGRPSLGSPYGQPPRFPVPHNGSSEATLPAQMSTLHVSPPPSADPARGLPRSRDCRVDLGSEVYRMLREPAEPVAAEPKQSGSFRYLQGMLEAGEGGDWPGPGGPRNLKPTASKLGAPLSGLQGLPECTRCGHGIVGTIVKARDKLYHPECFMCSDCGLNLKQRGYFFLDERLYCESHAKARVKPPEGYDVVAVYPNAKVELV
UniProt P49441: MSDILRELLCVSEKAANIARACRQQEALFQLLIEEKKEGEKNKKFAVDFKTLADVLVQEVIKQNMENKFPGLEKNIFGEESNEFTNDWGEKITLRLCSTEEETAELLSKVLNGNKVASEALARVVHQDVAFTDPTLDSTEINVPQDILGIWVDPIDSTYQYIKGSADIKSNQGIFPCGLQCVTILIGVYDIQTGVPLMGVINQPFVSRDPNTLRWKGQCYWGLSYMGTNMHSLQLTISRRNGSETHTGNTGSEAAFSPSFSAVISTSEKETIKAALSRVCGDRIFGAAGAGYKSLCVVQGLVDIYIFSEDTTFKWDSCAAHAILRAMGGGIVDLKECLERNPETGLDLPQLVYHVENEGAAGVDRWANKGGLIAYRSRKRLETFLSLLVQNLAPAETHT

Compound: COC(=O)/C=C/c1ccccc1 [methyl cinnamate]
Test: log2 ratio of iodoacetamide-alkyne labeling of the cysteine site, DMSO over compound (competition); higher = stronger covalent engagement of the cysteine by the compound, active = 1 or more
Conditions: 500 µM; treatment time 1 h; system: HEK293T cell lysate
Outline: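 Reporter intensities give each cysteine's log2 competition ratio as the mean of control channels over the mean of compound channels. The samples were HEK293T lysate (2 mg/mL) given vehicle or electrophile (500 µM, 1 h, ambient temperature), then iodoacetamide alkyne (1 h), followed by click coupling to sCIP-TMT reagents, pooling, trypsin digestion overnight at 37 °C, streptavidin enrichment, acid elution, Orbitrap Eclipse LC-MS/MS with FAIMS and FragPipe quantification. Duplicate channels and three replicates were run, and cysteines quantified in only one replicate were discarded.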

log2 ratio of iodoacetamide-alkyne labeling, inactive:
RPS5 C155 (UniProt P46782) 0.00966, GMPS C4 (UniProt P49915) 0.247, MAP1B C382 (UniProt P46821) 0.579, METAP2 C298 (UniProt P50579) -0.277, PTDSS1 C419 (UniProt P48651) -0.111, NAMPT C397 (UniProt P43490) 0.0265, GMPS C489 (UniProt P49915) 0.226, NDUFV1 C286 (UniProt P49821) -0.0384, UniProt P49840_C262 0.308, PCYT1A C73 (UniProt P49585) 0.39, CCT5 C377 (UniProt P48643) 0.396, RANBP2 C105 (UniProt P49792) 0.238, RANBP2 C1296 (UniProt P49792) 0.0596, CCT3 C366 (UniProt P49368) 0.059, MAP1B C2088 (UniProt P46821) 0.537, MKI67 C1843 (UniProt P46013) 0.128, FXR2 C87 (UniProt P51116) 0.00581, CCT4 C337 (UniProt P50991) 0.243, FASN C2202 (UniProt P49327) 0.356, MKI67 C3014 (UniProt P46013) -0.091, MARCKSL1 C134 (UniProt P49006) 0.363, VDAC2 C47 (UniProt P45880) 0.157, MKI67 C1981 (UniProt P46013) -0.289, VASP C334 (UniProt P50552) 0.469, CCT5 C407 (UniProt P48643) -0.0265, RPL34 C49 (UniProt P49207) 0.24, CCT5 C440 (UniProt P48643) 0.0652, METAP2 C290 (UniProt P50579) 0.343, PDLIM4 C44 (UniProt P50479) -0.229, INPP1 C10 (UniProt P49441) -0.132, UniProt P49591_C117 0.0664, KNTC1 C767 (UniProt P50748) -0.102, MKI67 C3241 (UniProt P46013) 0.262, IQGAP1 C660 (UniProt P46940) 0.0761, CCT3 C213 (UniProt P49368) 0.05, UTRN C1218 (UniProt P46939) 0.0488, UniProt P49591_C398 -0.0649
